No constants are given. Whether binding was seen depends on the method and setting. In cells and extracts the contact can be indirect. Here binding means that the protein was enriched with, or labelled near, the bait; the list need not be complete.

Protein sequences, listed by entry. Tags and fused reporters are not part of them.
UniProt P11940: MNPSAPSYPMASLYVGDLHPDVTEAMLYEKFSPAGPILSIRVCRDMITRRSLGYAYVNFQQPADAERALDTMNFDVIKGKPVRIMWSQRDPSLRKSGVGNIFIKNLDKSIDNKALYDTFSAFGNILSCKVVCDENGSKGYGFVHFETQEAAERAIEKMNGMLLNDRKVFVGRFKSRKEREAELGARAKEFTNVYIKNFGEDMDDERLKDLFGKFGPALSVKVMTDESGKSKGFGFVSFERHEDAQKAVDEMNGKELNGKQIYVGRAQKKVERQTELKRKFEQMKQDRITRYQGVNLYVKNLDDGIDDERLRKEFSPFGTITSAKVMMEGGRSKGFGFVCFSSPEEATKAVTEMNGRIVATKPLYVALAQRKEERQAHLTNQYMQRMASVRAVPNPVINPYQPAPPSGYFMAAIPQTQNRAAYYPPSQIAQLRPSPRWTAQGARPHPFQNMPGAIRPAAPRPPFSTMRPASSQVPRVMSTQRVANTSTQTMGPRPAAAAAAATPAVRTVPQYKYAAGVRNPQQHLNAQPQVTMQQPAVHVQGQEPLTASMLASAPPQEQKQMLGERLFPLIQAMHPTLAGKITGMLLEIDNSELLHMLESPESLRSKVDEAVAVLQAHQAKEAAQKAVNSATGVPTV
UniProt P17844: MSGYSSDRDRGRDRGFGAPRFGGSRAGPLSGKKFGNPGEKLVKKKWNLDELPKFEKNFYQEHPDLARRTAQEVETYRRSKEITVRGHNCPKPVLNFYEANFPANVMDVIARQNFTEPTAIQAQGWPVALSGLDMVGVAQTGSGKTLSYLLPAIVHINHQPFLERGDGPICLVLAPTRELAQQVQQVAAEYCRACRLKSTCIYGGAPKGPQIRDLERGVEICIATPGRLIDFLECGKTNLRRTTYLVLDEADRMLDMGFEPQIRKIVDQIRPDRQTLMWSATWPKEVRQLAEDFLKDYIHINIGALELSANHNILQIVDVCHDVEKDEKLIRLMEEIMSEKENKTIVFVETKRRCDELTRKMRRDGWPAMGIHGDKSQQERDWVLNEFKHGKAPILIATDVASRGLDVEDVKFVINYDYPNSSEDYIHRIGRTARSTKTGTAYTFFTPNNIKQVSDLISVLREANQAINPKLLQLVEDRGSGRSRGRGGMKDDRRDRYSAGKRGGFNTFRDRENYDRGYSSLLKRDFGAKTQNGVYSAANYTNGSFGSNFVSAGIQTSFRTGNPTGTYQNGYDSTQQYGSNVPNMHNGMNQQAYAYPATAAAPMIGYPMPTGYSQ
UniProt P13010: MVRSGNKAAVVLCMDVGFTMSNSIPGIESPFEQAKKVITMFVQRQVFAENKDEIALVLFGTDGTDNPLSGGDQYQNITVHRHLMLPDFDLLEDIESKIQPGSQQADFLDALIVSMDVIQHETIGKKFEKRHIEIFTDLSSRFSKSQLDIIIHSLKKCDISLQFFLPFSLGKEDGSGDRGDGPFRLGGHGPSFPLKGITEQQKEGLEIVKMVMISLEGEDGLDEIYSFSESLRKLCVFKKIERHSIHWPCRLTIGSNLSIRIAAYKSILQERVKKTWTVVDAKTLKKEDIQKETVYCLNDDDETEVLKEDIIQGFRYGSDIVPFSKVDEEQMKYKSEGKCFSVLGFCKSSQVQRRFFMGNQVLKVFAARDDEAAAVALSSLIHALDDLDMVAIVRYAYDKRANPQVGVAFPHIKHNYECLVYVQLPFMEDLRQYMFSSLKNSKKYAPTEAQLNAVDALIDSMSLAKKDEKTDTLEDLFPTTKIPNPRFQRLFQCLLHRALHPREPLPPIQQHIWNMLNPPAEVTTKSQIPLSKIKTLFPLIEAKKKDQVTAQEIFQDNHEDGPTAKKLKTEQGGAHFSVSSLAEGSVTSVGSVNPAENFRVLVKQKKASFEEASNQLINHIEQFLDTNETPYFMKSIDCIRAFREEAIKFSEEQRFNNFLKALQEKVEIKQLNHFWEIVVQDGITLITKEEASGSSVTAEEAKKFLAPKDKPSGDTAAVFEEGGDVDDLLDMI
UniProt P12956: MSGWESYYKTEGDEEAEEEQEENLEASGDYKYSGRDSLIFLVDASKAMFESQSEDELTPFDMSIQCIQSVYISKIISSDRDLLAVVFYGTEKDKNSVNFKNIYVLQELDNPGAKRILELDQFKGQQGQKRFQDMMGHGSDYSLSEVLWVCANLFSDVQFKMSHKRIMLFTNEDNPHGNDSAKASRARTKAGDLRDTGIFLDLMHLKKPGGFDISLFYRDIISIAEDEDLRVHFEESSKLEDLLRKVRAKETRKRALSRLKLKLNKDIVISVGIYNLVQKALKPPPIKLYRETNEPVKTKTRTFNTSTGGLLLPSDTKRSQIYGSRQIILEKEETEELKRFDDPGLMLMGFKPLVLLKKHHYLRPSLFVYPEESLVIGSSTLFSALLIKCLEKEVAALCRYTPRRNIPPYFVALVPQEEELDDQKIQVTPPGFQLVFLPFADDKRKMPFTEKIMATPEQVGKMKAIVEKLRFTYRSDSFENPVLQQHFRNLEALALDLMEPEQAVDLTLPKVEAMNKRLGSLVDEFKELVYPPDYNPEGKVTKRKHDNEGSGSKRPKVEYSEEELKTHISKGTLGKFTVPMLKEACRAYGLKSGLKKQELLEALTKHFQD
UniProt P11142: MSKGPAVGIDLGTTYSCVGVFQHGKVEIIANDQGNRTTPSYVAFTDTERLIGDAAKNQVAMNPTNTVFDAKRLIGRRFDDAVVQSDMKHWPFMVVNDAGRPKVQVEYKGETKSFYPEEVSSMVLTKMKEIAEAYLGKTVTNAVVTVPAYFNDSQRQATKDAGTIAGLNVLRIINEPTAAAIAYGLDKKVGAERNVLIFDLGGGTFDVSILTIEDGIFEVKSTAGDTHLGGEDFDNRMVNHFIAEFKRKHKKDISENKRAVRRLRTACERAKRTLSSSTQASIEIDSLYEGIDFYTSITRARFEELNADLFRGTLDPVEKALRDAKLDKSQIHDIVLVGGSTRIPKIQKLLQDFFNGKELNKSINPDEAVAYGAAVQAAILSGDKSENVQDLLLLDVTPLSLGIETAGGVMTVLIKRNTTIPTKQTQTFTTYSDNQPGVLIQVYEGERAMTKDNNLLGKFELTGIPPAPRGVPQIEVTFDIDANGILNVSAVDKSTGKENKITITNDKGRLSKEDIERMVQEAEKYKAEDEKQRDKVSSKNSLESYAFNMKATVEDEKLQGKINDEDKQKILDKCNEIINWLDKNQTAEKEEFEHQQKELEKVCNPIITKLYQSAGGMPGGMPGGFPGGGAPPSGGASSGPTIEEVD
UniProt Q12905: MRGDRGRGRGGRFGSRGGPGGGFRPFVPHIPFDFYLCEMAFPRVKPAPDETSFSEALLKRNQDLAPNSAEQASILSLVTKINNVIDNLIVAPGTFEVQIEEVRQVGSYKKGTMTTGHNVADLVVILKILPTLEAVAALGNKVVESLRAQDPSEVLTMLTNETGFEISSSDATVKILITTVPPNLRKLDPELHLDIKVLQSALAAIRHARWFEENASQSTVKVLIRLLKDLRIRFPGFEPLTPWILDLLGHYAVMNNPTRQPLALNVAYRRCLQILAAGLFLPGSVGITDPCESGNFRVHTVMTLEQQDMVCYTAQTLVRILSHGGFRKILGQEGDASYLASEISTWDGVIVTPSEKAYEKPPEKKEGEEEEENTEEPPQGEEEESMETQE
UniProt P09874: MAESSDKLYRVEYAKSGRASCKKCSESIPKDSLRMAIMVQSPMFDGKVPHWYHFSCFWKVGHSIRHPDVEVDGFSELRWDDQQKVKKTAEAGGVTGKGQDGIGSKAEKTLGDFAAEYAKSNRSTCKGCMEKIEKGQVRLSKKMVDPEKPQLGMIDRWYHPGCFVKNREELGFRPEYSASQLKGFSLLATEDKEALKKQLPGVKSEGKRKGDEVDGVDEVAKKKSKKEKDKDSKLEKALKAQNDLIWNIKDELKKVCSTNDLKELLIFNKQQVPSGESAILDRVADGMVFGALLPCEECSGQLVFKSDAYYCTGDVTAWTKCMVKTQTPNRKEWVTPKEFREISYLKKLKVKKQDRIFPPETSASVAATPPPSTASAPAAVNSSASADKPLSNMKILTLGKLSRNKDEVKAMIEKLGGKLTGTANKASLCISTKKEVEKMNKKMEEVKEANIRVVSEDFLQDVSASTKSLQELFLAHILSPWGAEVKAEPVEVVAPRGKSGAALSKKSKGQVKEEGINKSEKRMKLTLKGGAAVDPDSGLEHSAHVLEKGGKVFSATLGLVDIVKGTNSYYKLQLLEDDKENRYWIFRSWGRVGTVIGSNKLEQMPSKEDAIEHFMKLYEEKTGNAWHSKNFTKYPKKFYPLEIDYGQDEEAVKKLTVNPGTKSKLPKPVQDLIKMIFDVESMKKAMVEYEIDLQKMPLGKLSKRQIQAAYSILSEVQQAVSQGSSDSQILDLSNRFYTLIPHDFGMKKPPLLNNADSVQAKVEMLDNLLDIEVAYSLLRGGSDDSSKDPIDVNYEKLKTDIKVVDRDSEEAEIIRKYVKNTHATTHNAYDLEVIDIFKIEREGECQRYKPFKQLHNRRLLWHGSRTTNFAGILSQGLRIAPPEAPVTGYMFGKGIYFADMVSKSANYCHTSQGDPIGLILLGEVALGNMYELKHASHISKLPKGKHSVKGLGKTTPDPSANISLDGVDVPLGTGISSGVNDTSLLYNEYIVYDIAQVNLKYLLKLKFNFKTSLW

First the molecules themselves.
B1: chromatin and nuclear assembly regulator BANF1 (protein, UniProt O75531 1-89)
chain: MTTSQKHRDFVAEPMGEKPVGSLAGIGEVLGKKLEERGFDKAYVVLGQFLVLKKDEDLFREWLKDTCGANAKQSRDCFGCLREWCDAFL

One test deals with FLAG-NKX3.1 (human) (UniProt Q99801). Briefly: affinity purification with mass spectrometry; FLAG-NKX3.1 from transfected LNCaP lysate (50 mM Tris-HCl pH 7.4, 150 mM NaCl, 1% Triton X 100; MG132 4 h before lysis) on anti-FLAG M2 magnetic beads, 4 h at 4°C, eluted with triple FLAG peptide; LC-MS/MS; four purifications against mock (empty vector).
With PABPC1 (from UniProt P11940 1-636), the binding entry was “binds”.
In the case of “RNA helicase DDX5 (from UniProt P17844 1-614) (enzyme)”, the binding result is on record as “binds”.
As for XRCC5/Ku80 (from UniProt P13010 1-732), the binding entry was “binds”.
For the molecule XRCC6/Ku70 (from UniProt P12956 1-609), the binding entry is “binds”.
Consider “heat shock protein HSPA8 (from UniProt P11142 1-646)”, for which the binding result is recorded as “binds”.
The same measure, in the same setting: for “interleukin enhancer binding factor 2 (ILF2/NFAT 45 kDa) (from UniProt Q12905 1-390)” the value was “binds”; for “poly(ADP) ribose polymerase (PARP1) (from UniProt P09874 1-1014) (enzyme)”, “binds”.

The next test shares this target. The test is described as above. This is another data set of the same source.
Consider B1, for which the binding result is “binds”.
